Patent US20170240629A1
No constants are given. Whether binding was seen depends on the method and setting. Some results given as binding are weak or reduced against the parent protein; the word gives no strength.

Biological target: cynomolgus PDGF-BB (cynomolgus)
Experiment: summary of the ELISA and SPR data

binding: binds
B1: PDGF-B-mumAb (antibody, V domains shown)
VH: QVQLQQSGAELMKPGASVKISCKATGYTFSSYWIEWVKQRPGHGLEWIGEILPGSGSTNYNEKFKVKATFTADTSSNTAYMQLSSLTSEDSAVYYCAQTTQDFDSWGQGTTLTVSS
VL: DIVLTQSPGSLAVSLGQRATISCRASESVDIYGYSFMHWYQQKPGQPPKLLIYRASNLESGIPARFSGSGSRTDFTLTINPVEADDVATYYCQQSNEDPRTFGGGTKLEIK
